Experimental data reported in article PMC3653867.

Biological target: T1, tetraspanin CD81 (rat (endogenous in fetal rat brain GCPs)) (UniProt Q62745)
T1 sequence: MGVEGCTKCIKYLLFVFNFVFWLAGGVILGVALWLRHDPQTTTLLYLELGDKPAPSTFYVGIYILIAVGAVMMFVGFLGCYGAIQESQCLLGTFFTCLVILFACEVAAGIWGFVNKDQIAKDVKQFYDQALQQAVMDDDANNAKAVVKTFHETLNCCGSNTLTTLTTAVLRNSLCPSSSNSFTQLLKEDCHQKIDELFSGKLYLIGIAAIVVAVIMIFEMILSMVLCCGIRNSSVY
Assay: co-IP; rat GCP membrane/cytoskeletal pellet solubilised in 2% Brij 98, 5 mM MgCl2, 1 mM CaCl2 in TBS (37°C 20 min, then 4°C 40 min); supernatant incubated overnight at 4°C with antibody-loaded protein G-agarose beads; 3 washes with PBS; Western blot

binding: binds
Substance: Amyloid precursor protein (rat (endogenous in fetal rat brain GCPs))

No constants are given. Whether binding was seen depends on the method and setting. Binding seen in cells or lysates may run through a third protein. Binding calls can cover weak binding; strength is not graded here.
